Data as given in PubChem BioAssay (NCATS).
The inconclusive results got no clear call from the source; some entries with a clear call stand among them for comparison. For some of these results: Potencies beside an inconclusive call are fits to weak or partial responses and may not hold up. Activity calls are given as the source filed them. Calls come from the whole dose curve; as a rule, active = well fitted cell-killing curve with a large enough effect; inconclusive = small, poorly fitted or top-dose-only effect, or effect the other way; inactive = no such curve, though single readings can be large or run the other way. Residues, ends and D or L forms follow the SMILES beside them.

What was measured:
[1] = Quantitative High-Throughput drug screen in 47 multiple myeloma cell lines against the NCATS MIPE library collection: L363_DSMZ cell viability assay (AID 1918984); settings: L363 myeloma viability, CellTiter-Glo ATP luminescence, 48 h; viability (% of control): at 45.8 µM (top of the series); note: nearly all actives have a fitted effect of over 40% in size
How it was run: (§1)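 ATP-based CellTiter-Glo luminescence after 48 h drug exposure (37 °C, 5% CO2) of 500 myeloma cells per well. DMSO-only wells set 100% viability, media-only wells 0%; MIPE 4.0 library added by pin tool.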

[2] = Quantitative High-Throughput drug screen in 47 multiple myeloma cell lines against the NCATS MIPE library collection: KMS34_JCRB cell viability assay (AID 1918985); settings: KMS34 myeloma viability, CellTiter-Glo ATP luminescence, 48 h; viability, percent of control: at 45.8 µM (top of the series); note: nearly all actives have a fitted effect of over 40% in size
How it was run: as §1

[3] = Quantitative High-Throughput drug screen in 47 multiple myeloma cell lines against the NCATS MIPE library collection: OCIMY7_PLB cell viability assay (AID 1918987); settings: OCI-MY7 myeloma viability, CellTiter-Glo ATP, 48 h; viability (% of DMSO): at 45.8 µM (top of the series); note: nearly all actives have a fitted effect of over 65% in size
How it was run: as §1

[4] = Quantitative High-Throughput drug screen in 47 multiple myeloma cell lines against the NCATS MIPE library collection: OCIMY5_PLB cell viability assay (AID 1918988); settings: OCI-MY5 myeloma viability, ATP luminescence, 48 h; viability, % of control: at 45.8 µM (top of the series); note: nearly all actives have a fitted effect of over 65% in size;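 for viability, % of control: 100% = DMSO-treated wells and 0% = wells with media alone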
How it was run: as §1

[5] = Quantitative High-Throughput drug screen in 47 multiple myeloma cell lines against the NCATS MIPE library collection: U266_ATCC cell viability assay (AID 1919864); settings: U266 myeloma viability, CellTiter-Glo ATP luminescence, 48 h; series mostly up to 45.8 µM; note: nearly all actives have a fitted effect of over 35% in size
How it was run: as §1

[6] = Quantitative High-Throughput drug screen in 47 multiple myeloma cell lines against the NCATS MIPE library collection: XG6_PLB cell viability assay (AID 1919865); settings: XG6 myeloma viability, CellTiter-Glo ATP luminescence, 48 h; viability (% of control): at 45.8 µM (top of the series); note: nearly all actives have a fitted effect of over 40% in size
How it was run: as §1

[7] = Quantitative High-Throughput drug screen in 47 multiple myeloma cell lines against the NCATS MIPE library collection: XG1_PLB cell viability assay (AID 1919866); settings: CellTiter-Glo ATP, 48 h; series mostly up to 45.8 µM; note: nearly all actives have a fitted effect of over 35% in size
How it was run: as §1

[8] = Quantitative High-Throughput drug screen in 47 multiple myeloma cell lines against the NCATS MIPE library collection: VP6_DJ cell viability assay (AID 1919867); settings: ATP luminescence, 48 h; viability (% of DMSO): at 45.8 µM (top of the series); note: nearly all actives have a fitted effect of over 40% in size
How it was run: as §1

[9] = Quantitative High-Throughput drug screen in 47 multiple myeloma cell lines against the NCATS MIPE library collection: SKMM1_PLB cell viability assay (AID 1919863); settings: SKMM1 myeloma viability, CellTiter-Glo ATP, 48 h; viability: active compounds read low; note: nearly all actives have a fitted effect of over 35% in size
How it was run: as §1
Potency is the fitted concentration of half-maximal effect.

Structure (SMILES) | Potency [1] | Potency [2] | Potency [3] | Potency [4] | Potency [5] | Potency [6] | Potency [7] | Potency [8] | Potency [9] | viability [9]
O=C(N[C@H](CO)[C@H](O)c1ccc([N+](=O)[O-])cc1)C(Cl)Cl | inconclusive: 0.001 µM | inactive | inconclusive: 37.2 µM [rising, single point] | inconclusive: 20.9 µM [rising, single point] | inconclusive: 9.35 µM [rising, partial curve, poor fit] | inactive | inactive | inconclusive: 3.72 µM [rising, partial curve, poor fit] |  | 
COC(=O)[C@H](Cc1ccccc1)NC(=O)[C@@H](N)CC(=O)O (H-Asp-Phe-OMe) | inconclusive: 0.264 µM [cytotoxic, full curve, poor fit] | inactive | inactive | inactive | inactive |  |  | inconclusive: 23.5 µM [cytotoxic, single point] | inconclusive: 0.0187 µM [cytotoxic, full curve, poor fit] | 
Cc1nnc(C(C)C)n1C1C[C@H]2CC[C@@H](C1)N2CC[C@H](NC(=O)C1CCC(F)(F)CC1)c1ccccc1 (stereo partly drawn) | inactive | inconclusive: 0.001 µM | inconclusive: 33.2 µM [cytotoxic, partial curve, poor fit] | inactive |  | active: 4.69 µM | inconclusive: 18.7 µM [cytotoxic, partial curve] |  |  | inactive: 147%
CCN(CCO)CCCC(C)Nc1ccnc2cc(Cl)ccc12 (stereo not drawn) | inactive | inactive | inconclusive: 0.418 µM [rising, full curve, poor fit] | inactive | inactive | inactive | inactive | inactive |  | 
CC(C)(Cc1ccc2ccccc2c1)NC[C@@H](O)COc1cccc(Cl)c1C#N | inconclusive: 11.8 µM [cytotoxic, single point] | inactive | inconclusive: 3.32 µM [cytotoxic, partial curve, poor fit] | inconclusive: 23.5 µM [cytotoxic, single point] |  |  |  | inconclusive: 0.003 µM [rising, full curve, poor fit] |  | inactive: 126%
CNC[C@H](O)c1cccc(O)c1 | inconclusive: 0.0026 µM [rising, full curve, poor fit] | inactive | inconclusive: 0.0083 µM [rising, full curve, poor fit] | active: 0.332 µM |  | inactive | inactive |  | inconclusive: 0.469 µM [rising, partial curve] | 
